Laboratory results published in paper PMC11302681, “Structural Basis of Directional Switching by the Bacterial Flagellum” (Research Square, 2023).
No constants are given. Whether binding was seen depends on the method and setting. A result given as binding can be weak or reduced; the word gives no strength. Where a sequence is shown, tags or fusion partners need not be part of it.

Biological target: C. sporogenes MotA (residues 1–262, of the MotA1–262-FliG239–333 fusion) (Clostridium sporogenes)
Test: cryo-EM structure; C. sporogenes MotA1–262-FliG239–333 fusion co-expressed with MotB-Twin-Strep in E. coli, purified in LMNG; 2.4 Å map; both purified

B1: C. sporogenes FliG C-terminal domain (residues 239–333, of the MotA1–262-FliG239–333 fusion) (domain or fragment, UniProt A0A7X5SWG7 239-333)
chain: VFEDIITLDDVAIQRVLREVETKDLALALKGSSEEVANVIFRNQSKRAASSLKEDIEFLGPVRIMDVEKAQQGIVSIIRRLDEAGEIVISRGGED
How did the binding turn out when B1 was run?
The binding was “binds”.
